The source of these data is US8114393B2, “Methods and compositions for phosphate binding” (Wisconsin Alumni Research Foundation, priority 2005, dated 2012).

The subject of the data set is Intestinal Phosphate Absorption. Put plainly: Fecal calcium and phosphorus measurements, binder in purified diet. Format: in vivo, rats. The conditions noted are these: 48 h fecal collection, mean ± SEM, control 11.23 ± 0.84. An excerpt:
Animals. Male Sprague-Dawley rats (Harlan Sprague-Dawley, Madison, Wis.) weighing approximately 120 grams were used in all experiments.
In experiments to measure fecal calcium and phosphorus levels, rats were fed purified diet described previously for 9 days. (Suda T et al., Biological activity of 25-hydroxyergocalciferol in rats, J Nutr 1970, 100:1049-1052). This diet was mixed with egg white protein (Harlan Teklad, Madison, Wis.) and contained 0.20% inorganic phosphorus and 0.47% calcium. The purified diet was supplemented with 100 μL soybean oil (Wesson oil, ConAgra Foods, Irvine, Calif.) containing 500 μg α-tocopherol, 60 μg menadione, 40 μg β-carotene, and 1.875 μg cholecalciferol three times each week.
Fecal calcium and phosphorus measurements. Rats were fed the purified diet described above or the same diet with 1.2% calcium, 0.15% Renagel®, or 0.15% DAB-4, DAB-8, or DAB-16 for 7 days. Rats were then moved to metabolic cages and fecal matter was collected for 48 hours. Fecal samples were frozen, lyophilized, and heated to over 600° C. overnight in a muffle oven. Remaining ash was then dissolved overnight in 25 mL 6 N HCl. The calcium concentration of the acid was determined by flame atomic absorption spectroscopy (Model 3110, Perkin Elmer, Norwalk, Conn.) using an aliquot of the dissolved ash diluted 1:40 with 1 g/L LaCl3. The phosphorus concentration of an aliquot of the dissolved ash was determined by a colorimetric assay described previously. (Itaya K et al., A new micromethod for the colorimetric determination of inorganic phosphate, Clin Chim Acta 1966, 14:361-366).
Statistical analysis. Data are presented as means±standard error of the means (SEM). Treatment groups were compared by a fully factorial analysis of variance (ANOVA) and means were subjected to Tukey, Scheffe, and Fisher's Least-Significant-Difference (LSD) tests (Systat 5.2.1, Systat Software, Inc., Point Richmond, Calif.). Differences were considered significant if at least two of the tests detected significance with a p-value <0.05, unless specified otherwise.

Regarding `Cl.Cl.Cl.Cl.Cl.Cl.NCCCN(CCCN)CCCCN(CCCN)CCCN` [DAB-4, polypropylenimine tetraamine Dendrimer perhydrochloride], the “mg Ca per gram feces” value (0.15% of diet for 7 days) is on record as 14.28 ± 2.01 mg Ca per gram feces.

As to `CC(=O)[O-].CC(=O)[O-].[Ca+2]` [calcium, Calcium acetate, reference compound], the “mg Ca per gram feces” value (1.20% Ca diet for 7 days) came out at 80.71 ± 4.60 mg Ca per gram feces.

In the case of “Polypropylenimine hexadecaamine Dendrimer perhydrochloride [DAB-16]”, under “0.15% of diet for 7 days”, the “mg Ca per gram feces” value stood at 15.82 ± 1.52 mg Ca per gram feces.

Consider “polypropylenimine octaamine Dendrimer perhydrochloride [DAB-8]”, for which the “mg Ca per gram feces” value (0.15% of diet for 7 days) is 16.06 ± 1.44 mg Ca per gram feces.
